Reference: publication PMC10768284
These are yes or no findings as the source states them, for the method shown. Binding seen in cells or lysates may run through a third protein. Some results given as binding are weak or reduced against the parent protein; the word gives no strength.

The chains behind the UniProt entries cited, without tags or fusion partners.
UniProt O15169: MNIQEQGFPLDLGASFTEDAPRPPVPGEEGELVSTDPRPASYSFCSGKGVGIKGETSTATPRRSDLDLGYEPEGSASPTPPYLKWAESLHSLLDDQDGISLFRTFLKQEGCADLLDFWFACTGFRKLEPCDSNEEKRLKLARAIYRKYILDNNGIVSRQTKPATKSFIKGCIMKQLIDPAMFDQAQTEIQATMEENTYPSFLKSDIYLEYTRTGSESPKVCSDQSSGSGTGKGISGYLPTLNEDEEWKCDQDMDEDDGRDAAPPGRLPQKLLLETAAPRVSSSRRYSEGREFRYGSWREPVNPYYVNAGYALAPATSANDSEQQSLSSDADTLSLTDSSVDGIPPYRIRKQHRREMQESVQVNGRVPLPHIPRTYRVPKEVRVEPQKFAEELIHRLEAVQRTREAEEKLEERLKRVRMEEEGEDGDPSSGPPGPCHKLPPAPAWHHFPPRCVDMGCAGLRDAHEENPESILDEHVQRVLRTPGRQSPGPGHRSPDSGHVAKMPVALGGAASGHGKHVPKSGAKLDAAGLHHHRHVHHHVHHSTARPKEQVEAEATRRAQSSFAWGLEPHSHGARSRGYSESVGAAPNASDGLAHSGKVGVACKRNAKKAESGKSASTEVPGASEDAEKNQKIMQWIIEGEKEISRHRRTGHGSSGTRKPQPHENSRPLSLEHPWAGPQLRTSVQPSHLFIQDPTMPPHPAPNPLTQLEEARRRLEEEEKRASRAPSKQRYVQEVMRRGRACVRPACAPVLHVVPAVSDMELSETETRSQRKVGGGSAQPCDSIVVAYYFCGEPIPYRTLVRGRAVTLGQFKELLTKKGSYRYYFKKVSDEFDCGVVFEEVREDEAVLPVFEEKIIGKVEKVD
UniProt P49674: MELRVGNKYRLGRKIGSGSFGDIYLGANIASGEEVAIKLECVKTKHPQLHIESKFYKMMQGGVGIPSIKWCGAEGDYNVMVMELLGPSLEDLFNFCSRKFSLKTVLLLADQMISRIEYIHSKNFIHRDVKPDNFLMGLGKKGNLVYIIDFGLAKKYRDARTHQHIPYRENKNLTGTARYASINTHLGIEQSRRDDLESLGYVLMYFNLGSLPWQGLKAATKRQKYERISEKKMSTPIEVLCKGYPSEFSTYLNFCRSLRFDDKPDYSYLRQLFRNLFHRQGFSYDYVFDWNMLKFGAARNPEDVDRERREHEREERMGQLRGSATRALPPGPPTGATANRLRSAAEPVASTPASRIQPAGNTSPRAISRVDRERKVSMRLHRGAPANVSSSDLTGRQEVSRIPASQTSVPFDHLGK

Target: Axin1 (human (endogenous in HEK293T)) (UniProt O15169)
Assay: co-IP; endogenous proteins in HEK293T lysate (RIPA lysis mixture with protease and phosphatase inhibitors); supernatant incubated overnight at 4 °C with specific primary antibody or control IgG, protein A/G magnetic beads 3 h, washed 3 times with RIPA; cells treated with 0.2 μg/mL rRSPO1 for 12 h, alone or with 0.2 μM SR3029; co-precipitated CK1ε and LRP6 normalized to Axin1

For “Casein kinase 1ε (CK1ε) (from UniProt P49674 1-416) (enzyme)”, the binding was “binds”.
